The other results are listed elsewhere or left out.
What was measured:
Assay in all cases: log2 fold change, soluble protein after heating vs DMSO (PISA); higher = thermal stabilisation; K562 lysate, 10 uM; active = over 0.2 and 3.5 SD of the protein, either way, in both replicates (recomputed)
erlotinib = compound: C#Cc1cccc(Nc2ncnc3cc(OCCOC)c(OCCOC)cc23)c1 [erlotinib]
Method in brief: (§1)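 Log-two fold change in thermal stability relative to solvent controls is reported from duplicates. For each sample, crude K562 extract from dounce-homogenised pellets in PBS pH 7.4 with 1 mM MgCl2, at 1 mg/mL protein, was treated with 10 μM compound for 30 min. Aliquots heated for 3 min across 48°C-58°C were pooled, brought to 0.5% NP-40 at 4°C and cleared at 21,000xg for 90 min. The supernatant was quantified by TMTpro 16plex LC-MS/MS with channel sums equalised.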

The chains behind the UniProt entries cited, without tags or fusion partners. Where a name states a change or a piece, a line headed by the entry shows the natural chain unless it says otherwise.
UniProt O43395: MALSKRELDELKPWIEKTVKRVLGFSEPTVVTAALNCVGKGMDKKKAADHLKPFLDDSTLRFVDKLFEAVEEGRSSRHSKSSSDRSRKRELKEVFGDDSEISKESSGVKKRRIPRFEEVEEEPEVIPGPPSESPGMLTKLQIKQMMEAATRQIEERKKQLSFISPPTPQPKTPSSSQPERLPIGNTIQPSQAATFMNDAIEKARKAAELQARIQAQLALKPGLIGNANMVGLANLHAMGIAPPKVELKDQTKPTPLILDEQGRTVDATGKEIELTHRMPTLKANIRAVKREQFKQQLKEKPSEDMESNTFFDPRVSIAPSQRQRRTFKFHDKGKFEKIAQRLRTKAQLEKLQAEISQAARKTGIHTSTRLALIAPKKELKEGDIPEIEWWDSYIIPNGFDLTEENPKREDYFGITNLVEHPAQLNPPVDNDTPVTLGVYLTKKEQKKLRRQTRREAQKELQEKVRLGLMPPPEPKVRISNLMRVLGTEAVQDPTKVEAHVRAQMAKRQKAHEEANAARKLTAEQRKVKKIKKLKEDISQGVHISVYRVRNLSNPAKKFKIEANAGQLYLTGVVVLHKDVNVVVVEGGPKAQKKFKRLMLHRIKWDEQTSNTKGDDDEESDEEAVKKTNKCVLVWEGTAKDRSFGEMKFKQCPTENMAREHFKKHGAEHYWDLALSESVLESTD
UniProt P42785: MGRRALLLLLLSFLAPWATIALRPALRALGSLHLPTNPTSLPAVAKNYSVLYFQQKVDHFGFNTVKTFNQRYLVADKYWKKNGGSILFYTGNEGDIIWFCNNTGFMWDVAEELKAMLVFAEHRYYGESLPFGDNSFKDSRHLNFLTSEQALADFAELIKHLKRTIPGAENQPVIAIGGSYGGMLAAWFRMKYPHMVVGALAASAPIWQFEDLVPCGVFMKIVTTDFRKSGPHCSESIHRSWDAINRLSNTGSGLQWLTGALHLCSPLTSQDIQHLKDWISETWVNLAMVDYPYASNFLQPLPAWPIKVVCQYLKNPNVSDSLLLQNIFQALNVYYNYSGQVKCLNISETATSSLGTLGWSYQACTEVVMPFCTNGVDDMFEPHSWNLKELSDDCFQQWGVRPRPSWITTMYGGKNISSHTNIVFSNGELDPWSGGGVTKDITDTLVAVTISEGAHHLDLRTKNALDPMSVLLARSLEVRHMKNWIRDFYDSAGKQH
UniProt Q9H875: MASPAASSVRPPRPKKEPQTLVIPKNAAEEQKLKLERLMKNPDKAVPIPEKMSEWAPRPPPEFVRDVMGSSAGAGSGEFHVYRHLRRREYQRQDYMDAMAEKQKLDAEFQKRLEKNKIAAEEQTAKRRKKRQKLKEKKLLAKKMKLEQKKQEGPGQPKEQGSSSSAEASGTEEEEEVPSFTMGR
UniProt Q13427: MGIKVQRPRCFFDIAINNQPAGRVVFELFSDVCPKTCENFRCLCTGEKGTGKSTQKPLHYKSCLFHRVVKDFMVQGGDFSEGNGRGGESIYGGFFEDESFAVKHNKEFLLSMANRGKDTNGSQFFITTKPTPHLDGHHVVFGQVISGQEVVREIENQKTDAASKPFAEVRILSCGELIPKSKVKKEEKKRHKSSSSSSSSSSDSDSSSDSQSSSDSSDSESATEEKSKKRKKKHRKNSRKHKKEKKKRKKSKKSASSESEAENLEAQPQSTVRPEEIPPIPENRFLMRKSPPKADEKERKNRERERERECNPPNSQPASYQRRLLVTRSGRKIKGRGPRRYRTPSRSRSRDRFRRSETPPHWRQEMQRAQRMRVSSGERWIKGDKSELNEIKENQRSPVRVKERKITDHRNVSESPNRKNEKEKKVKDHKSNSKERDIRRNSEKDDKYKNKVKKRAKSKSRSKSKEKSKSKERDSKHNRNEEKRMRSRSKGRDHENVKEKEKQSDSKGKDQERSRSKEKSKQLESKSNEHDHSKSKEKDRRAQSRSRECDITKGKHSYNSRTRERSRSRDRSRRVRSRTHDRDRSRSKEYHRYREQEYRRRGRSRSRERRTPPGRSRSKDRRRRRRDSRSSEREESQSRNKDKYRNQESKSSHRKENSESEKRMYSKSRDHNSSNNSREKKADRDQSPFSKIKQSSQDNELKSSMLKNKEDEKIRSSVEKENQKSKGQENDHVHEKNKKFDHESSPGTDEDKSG
UniProt Q5MIZ7: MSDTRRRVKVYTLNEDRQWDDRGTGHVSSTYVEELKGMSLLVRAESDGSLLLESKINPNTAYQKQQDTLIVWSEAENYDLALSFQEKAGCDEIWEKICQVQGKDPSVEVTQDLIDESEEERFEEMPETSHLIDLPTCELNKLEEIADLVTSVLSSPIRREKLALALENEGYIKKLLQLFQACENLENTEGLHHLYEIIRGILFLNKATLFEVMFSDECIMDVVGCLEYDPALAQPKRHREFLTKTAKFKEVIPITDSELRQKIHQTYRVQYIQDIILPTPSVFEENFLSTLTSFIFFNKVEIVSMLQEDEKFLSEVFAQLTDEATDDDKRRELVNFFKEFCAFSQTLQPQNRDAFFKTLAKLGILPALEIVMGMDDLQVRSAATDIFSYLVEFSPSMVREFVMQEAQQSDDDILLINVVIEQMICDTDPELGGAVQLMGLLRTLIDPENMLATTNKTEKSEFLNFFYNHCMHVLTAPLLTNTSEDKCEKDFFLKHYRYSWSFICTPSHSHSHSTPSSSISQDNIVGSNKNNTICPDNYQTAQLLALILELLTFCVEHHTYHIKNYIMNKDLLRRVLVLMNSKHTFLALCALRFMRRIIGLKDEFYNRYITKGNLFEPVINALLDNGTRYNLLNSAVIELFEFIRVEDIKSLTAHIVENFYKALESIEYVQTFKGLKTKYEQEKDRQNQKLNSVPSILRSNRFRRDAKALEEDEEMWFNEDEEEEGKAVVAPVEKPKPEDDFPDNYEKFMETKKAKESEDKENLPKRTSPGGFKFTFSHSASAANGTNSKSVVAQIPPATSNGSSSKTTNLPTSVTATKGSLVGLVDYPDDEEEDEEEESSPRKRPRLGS
UniProt Q96BP3: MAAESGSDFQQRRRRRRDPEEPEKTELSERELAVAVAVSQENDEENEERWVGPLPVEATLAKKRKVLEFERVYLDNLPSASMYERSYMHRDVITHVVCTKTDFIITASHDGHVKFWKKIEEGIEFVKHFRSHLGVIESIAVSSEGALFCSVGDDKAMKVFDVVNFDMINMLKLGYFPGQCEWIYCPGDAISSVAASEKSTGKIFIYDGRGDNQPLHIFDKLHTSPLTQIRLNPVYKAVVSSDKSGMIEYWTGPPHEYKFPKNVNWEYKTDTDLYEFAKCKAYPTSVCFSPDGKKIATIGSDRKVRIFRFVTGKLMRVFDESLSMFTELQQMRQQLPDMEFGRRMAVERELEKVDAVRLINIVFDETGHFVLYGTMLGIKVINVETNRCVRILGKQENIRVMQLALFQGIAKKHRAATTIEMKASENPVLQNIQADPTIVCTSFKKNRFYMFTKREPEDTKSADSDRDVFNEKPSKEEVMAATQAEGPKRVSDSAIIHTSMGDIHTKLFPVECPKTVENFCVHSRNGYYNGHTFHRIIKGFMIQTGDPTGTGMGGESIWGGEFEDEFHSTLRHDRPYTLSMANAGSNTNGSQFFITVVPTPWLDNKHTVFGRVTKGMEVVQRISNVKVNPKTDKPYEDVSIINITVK
UniProt O43172: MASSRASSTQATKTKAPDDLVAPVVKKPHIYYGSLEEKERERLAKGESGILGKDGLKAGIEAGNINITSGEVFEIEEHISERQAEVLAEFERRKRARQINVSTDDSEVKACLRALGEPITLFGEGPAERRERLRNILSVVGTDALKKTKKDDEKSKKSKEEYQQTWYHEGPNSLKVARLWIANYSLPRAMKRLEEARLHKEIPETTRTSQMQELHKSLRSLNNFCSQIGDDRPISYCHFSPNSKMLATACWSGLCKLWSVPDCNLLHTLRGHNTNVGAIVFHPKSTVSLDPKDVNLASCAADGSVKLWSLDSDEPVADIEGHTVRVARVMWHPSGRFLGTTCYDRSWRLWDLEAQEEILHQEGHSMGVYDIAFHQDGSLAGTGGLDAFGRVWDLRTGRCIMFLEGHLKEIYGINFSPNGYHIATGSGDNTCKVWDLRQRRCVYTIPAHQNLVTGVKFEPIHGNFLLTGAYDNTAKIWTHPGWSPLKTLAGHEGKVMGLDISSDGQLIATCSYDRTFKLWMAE
UniProt P36873, whole entry, looked up: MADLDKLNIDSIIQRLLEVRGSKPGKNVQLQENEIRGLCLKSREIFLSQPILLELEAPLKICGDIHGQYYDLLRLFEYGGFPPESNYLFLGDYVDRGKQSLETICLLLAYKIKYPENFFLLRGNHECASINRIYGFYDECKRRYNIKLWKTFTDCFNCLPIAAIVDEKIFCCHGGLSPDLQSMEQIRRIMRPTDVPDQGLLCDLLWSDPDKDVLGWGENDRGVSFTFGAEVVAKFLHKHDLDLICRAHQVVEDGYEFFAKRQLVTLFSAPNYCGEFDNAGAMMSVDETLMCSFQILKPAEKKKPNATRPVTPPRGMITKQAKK
UniProt Q9UNN8: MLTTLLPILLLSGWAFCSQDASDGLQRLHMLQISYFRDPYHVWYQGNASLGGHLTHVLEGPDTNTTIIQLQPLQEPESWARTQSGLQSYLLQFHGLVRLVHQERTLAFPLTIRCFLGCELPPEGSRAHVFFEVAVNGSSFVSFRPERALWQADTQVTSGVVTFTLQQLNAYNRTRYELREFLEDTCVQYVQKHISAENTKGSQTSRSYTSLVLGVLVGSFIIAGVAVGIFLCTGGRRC
UniProt P53041: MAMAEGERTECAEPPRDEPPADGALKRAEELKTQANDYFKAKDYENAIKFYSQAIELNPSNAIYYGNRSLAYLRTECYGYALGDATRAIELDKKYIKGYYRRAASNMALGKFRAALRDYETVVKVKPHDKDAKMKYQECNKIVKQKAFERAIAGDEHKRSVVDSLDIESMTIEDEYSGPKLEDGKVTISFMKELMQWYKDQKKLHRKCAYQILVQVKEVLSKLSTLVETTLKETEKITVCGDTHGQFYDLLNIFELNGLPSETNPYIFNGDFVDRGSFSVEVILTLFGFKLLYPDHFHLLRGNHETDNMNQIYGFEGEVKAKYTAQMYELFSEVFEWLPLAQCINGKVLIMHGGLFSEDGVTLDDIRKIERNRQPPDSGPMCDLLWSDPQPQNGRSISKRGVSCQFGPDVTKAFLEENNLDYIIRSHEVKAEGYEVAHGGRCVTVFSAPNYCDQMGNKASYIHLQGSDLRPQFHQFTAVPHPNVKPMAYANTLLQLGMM
UniProt Q8TAP8: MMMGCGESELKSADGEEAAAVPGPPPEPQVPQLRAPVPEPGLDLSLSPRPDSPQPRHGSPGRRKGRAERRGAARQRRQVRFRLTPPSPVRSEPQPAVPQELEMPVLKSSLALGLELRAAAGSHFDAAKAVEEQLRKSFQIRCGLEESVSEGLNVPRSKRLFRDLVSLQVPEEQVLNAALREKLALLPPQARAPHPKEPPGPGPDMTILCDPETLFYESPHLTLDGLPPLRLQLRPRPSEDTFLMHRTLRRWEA
UniProt P54619: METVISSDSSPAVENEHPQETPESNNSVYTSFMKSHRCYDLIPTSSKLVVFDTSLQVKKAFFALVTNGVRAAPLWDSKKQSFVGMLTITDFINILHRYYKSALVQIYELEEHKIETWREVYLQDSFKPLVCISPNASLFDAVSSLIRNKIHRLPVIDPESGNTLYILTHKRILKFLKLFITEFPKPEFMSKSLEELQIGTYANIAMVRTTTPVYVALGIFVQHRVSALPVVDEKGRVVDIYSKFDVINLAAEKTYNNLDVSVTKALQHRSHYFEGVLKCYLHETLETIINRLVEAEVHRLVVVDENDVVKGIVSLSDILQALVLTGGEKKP
UniProt P50897: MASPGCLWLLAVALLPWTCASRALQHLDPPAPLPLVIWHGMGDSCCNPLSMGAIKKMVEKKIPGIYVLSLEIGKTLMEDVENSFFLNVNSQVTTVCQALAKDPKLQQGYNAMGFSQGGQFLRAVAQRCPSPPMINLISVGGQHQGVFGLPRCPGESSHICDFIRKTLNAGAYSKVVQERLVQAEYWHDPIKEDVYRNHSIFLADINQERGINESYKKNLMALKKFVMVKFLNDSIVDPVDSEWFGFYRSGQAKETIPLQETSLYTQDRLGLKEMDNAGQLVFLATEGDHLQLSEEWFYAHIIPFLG

[1] = compound: C/C(=N\NC(=O)C1=CC(=CC=C1)S(=O)(=O)N2CCOCC2)/C3=C(C=CC(=C3)Cl)O
Method in brief: as §1

[2] = compound: C1=CC(=CC=C1C2=NC3=C(N2)C=C(C=C3)C(=O)N)OC4=CC=C(C=C4)Cl
Method in brief: as §1

[3] = compound: C1=CC2=C(C=CC(=C2)/C=C\3/C(=O)NC(=NCC4=CC=CS4)S3)N=C1
Method in brief: as §1

[4] = compound: C1=CC2=NC=CN=C2C=C1/C=C/3\C(=O)NC(=O)S3
Method in brief: as §1

[5] = compound: C1=CC=C(C=C1)C2=NC(=C(N2)C3=CC=NC=C3)C4=CC(=C(C=C4)Cl)O
Method in brief: as §1

[6] = compound: C1=CC=C2C(=C1)C3=NNC4=CC=CC(=C43)C2=O
Method in brief: as §1

[7] = compound: C1CCN(C1)C(=O)NC2=CC=CC(=C2)NC3=NC=C(C(=N3)NCCC4=CN=CN4)Br
Method in brief: as §1

[8] = compound: C1CN(CCC1(CC2=CC=C(C=C2)Cl)N)C3=NC=NC4=C3C=CN4
Method in brief: as §1

IRAK-1-4 Inhibitor I = compound: C1COCCN1CCN2C3=CC=CC=C3N=C2NC(=O)C4=CC(=CC=C4)[N+](=O)[O-] [IRAK-1-4 Inhibitor I]
Method in brief: as §1

ibrutinib = compound: C=CC(=O)N1CCC[C@@H](n2nc(-c3ccc(Oc4ccccc4)cc3)c3c(N)ncnc32)C1 [ibrutinib]
Method in brief: as §1

[9] = compound: CC(=O)c1cnc2ccc(-c3cc(Cl)c(O)c(Cl)c3)nc2c1N[C@H]1CC[C@H](CN(C)C)CC1
Method in brief: as §1

ralimetinib = compound: CC(C)(C)Cn1c(N)nc2ccc(-c3[nH]c(C(C)(C)C)nc3-c3ccc(F)cc3)nc21 [ralimetinib]
Method in brief: as §1

[10] = compound: CC(C)(O)CC(=O)NCCn1ccc2ncnc(Nc3ccc(Oc4cccc(C(F)(F)F)c4)c(Cl)c3)c21
Method in brief: as §1

[11] = compound: CC(C)C1=C2N=C(C=C(N2N=C1)NCC3=CC=CC=C3)NCCCCCCN
Method in brief: as §1

[12] = compound: CC1=C(C(CC(=O)N1)C2=CC=C(C=C2)C(F)(F)F)C(=O)NC3=C(C=C4C(=C3)C=NN4)F
Method in brief: as §1

[13] = compound: CC1=C(C2=C(C=C1)C(=O)C3=CC=CC=C3N2CCCN)C
Method in brief: as §1

[14] = compound: CC1=C(C=C(C=C1)NC(=O)C2=CC(=CC=C2)C(C)(C)C#N)NC3=CC4=C(C=C3)N=CN(C4=O)C
Method in brief: as §1

[15] = compound: CC1=C(C=C(C=C1)NC(=O)C2=CC(=CC=C2)N(C)C)NC(=O)C3=CC=C(C=C3)O
Method in brief: as §1

[16] = compound: CC1=CC=C(C=C1)SC2=C3C=C(SC3=CN=C2)C(=O)N
Method in brief: as §1

Measured: log2 fold change

PRPF3 (UniProt O43395)
inactive: erlotinib -0.036 | [1] 0.027 | [2] -0.01 | [3] 0.01 | [4] -0.033 | [5] 0.015 | [6] 0.008 | [7] 0.011 | [8] -0.009 | IRAK-1-4 Inhibitor I -0.027 | ibrutinib -0.003 | [9] -0.011 | ralimetinib 0.03 | [10] -0.005 | [11] 0.021 | [12] -0.002 | [13] 0.019 | [14] -0.044 | [15] 0.068 | [16] 0.007

PRCP (UniProt P42785)
inactive: erlotinib 0.003 | [1] -0.031 | [2] -0.016 | [3] 0.011 | [4] 0.031 | [5] -0.001 | [6] 0.024 | [7] -0.025 | [8] 0 | IRAK-1-4 Inhibitor I 0.043 | ibrutinib 0.016 | [9] 0.017 | ralimetinib -0.058 | [10] -0.099 | [11] -0.02 | [12] 0.033 | [13] 0.001 | [14] -0.002 | [15] -0.011 | [16] 0.016

PRMT3 (UniProt O60678)
inactive: erlotinib 0.014 | [1] -0.019 | [2] -0.029 | [3] -0.014 | [4] 0.021 | [5] 0.001 | [6] -0.005 | [7] -0.011 | [8] 0.009 | IRAK-1-4 Inhibitor I 0.026 | ibrutinib -0.018 | [9] -0.01 | ralimetinib -0.017 | [10] -0.094 | [11] 0.001 | [12] -0.044 | [13] 0.021 | [14] 0.022 | [15] -0.02 | [16] -0.012

PRKRIP1 (UniProt Q9H875)
inactive: erlotinib -0.035 | [1] -0.044 | [2] 0.014 | [3] 0.006 | [4] -0.103 | [5] 0.049 | [6] 0.012 | [7] -0.034 | [8] -0.014 | IRAK-1-4 Inhibitor I -0.014 | ibrutinib -0.036 | [9] 0.02 | ralimetinib -0.023 | [10] -0.05 | [11] -0.022 | [12] -0.032 | [13] -0.013 | [14] -0.051 | [15] -0.045 | [16] -0.007

PPIG (UniProt Q13427)
inactive: erlotinib -0.007 | [1] -0.011 | [2] 0.082 | [3] -0.007 | [4] -0.047 | [5] -0.064 | [6] -0.05 | [7] -0.005 | [8] 0.047 | IRAK-1-4 Inhibitor I -0.05 | ibrutinib -0.045 | [9] -0.022 | ralimetinib 0.036 | [10] 0.06 | [11] 0.009 | [12] 0.055 | [13] -0.051 | [14] 0.05 | [15] 0.056 | [16] 0.013

PPP4R3B (UniProt Q5MIZ7)
inactive: erlotinib 0.012 | [1] 0.033 | [2] -0.018 | [3] 0.05 | [4] 0.011 | [5] -0.018 | [6] 0.013 | [7] -0.002 | [8] 0.007 | IRAK-1-4 Inhibitor I -0.009 | ibrutinib 0.02 | [9] -0.037 | ralimetinib 0.012 | [10] 0.023 | [11] -0.013 | [12] 0.008 | [13] 0.018 | [14] 0.024 | [15] 0.018 | [16] -0.011

PPWD1 (UniProt Q96BP3)
inactive: erlotinib -0.015 | [1] -0.004 | [2] 0.013 | [3] 0.013 | [4] -0.019 | [5] -0.001 | [6] -0.021 | [7] -0.009 | [8] -0.016 | IRAK-1-4 Inhibitor I -0.021 | ibrutinib 0.049 | [9] -0.026 | ralimetinib 0.031 | [10] -0.013 | [11] 0.003 | [12] 0.006 | [13] 0.015 | [14] -0.012 | [15] 0.022 | [16] 0.003

PRPF4 (UniProt O43172)
inactive: erlotinib -0.004 | [1] -0.044 | [2] 0.042 | [3] 0.007 | [4] 0.01 | [5] 0.018 | [6] 0.022 | [7] -0.021 | [8] 0.018 | IRAK-1-4 Inhibitor I 0.011 | ibrutinib -0.016 | [9] -0.019 | ralimetinib -0.016 | [10] -0.014 | [11] -0.012 | [12] -0.009 | [13] -0.027 | [14] 0.028 | [15] 0.004 | [16] 0.004

PPP1CC isoform 2 (UniProt P36873)
inactive: erlotinib -0.007 | [1] -0.018 | [2] 0.039 | [3] -0.006 | [4] 0.004 | [5] -0.003 | [6] -0.015 | [7] -0.009 | [8] 0.012 | IRAK-1-4 Inhibitor I -0.001 | ibrutinib 0.021 | [9] 0.005 | ralimetinib 0.018 | [10] 0.005 | [11] -0.035 | [12] -0.001 | [13] -0.034 | [14] -0.013 | [15] -0.001 | [16] 0.002

PROCR (UniProt Q9UNN8)
inactive: erlotinib -0.075 | [1] -0.281 | [2] 0.012 | [3] -0.072 | [4] -0.059 | [5] -0.119 | [6] 0.039 | [7] 0.14 | [8] -0.062 | IRAK-1-4 Inhibitor I 0.028 | ibrutinib -0.09 | [9] -0.008 | ralimetinib -0.015 | [10] 0.038 | [11] -0.102 | [12] 0.064 | [13] -0.137 | [14] -0.044 | [15] -0.08 | [16] -0.022

PPP3CA isoform 2 (UniProt Q08209)
inactive: erlotinib -0.005 | [1] -0.037 | [2] 0.045 | [3] -0.036 | [4] -0.014 | [5] 0.014 | [6] -0.006 | [7] 0.082 | [8] -0.026 | IRAK-1-4 Inhibitor I -0.01 | ibrutinib 0.017 | [9] 0.012 | ralimetinib -0.01 | [10] -0.052 | [11] -0.014 | [12] 0 | [13] -0.03 | [14] 0.03 | [15] 0.028 | [16] -0.012

PPP5C (UniProt P53041)
inactive: erlotinib -0.013 | [1] -0.007 | [2] 0.04 | [3] 0.005 | [4] -0.005 | [5] 0.001 | [6] 0.038 | [7] 0.005 | [8] 0.005 | IRAK-1-4 Inhibitor I 0.004 | ibrutinib -0.003 | [9] -0.01 | ralimetinib 0.006 | [10] -0.025 | [11] 0.012 | [12] -0.015 | [13] -0.006 | [14] 0.023 | [15] -0.004 | [16] -0.004

PPP1R35 (UniProt Q8TAP8)
inactive: erlotinib 0.038 | [1] -0.02 | [2] 0.105 | [3] -0.012 | [4] 0.018 | [5] -0.023 | [6] 0.081 | [7] -0.015 | [8] 0.135 | IRAK-1-4 Inhibitor I 0.275 | ibrutinib 0.048 | [9] -0.033 | ralimetinib -0.08 | [10] -0.102 | [11] -0.015 | [12] 0.018 | [13] 0.018 | [14] 0.004 | [15] 0.102 | [16] -0.02

PRKAG1 (UniProt P54619)
inactive: erlotinib -0.043 | [1] -0.045 | [2] -0.024 | [3] -0.001 | [4] -0.021 | [5] 0.013 | [6] 0.092 | [7] 0.158 | [8] 0.05 | IRAK-1-4 Inhibitor I 0.131 | ibrutinib 0.037 | [9] 0.036 | ralimetinib -0.016 | [10] -0.025 | [11] -0.045 | [12] -0.025 | [13] -0.01 | [14] 0.002 | [15] -0.006 | [16] -0.006

PPT1 (UniProt P50897)
inactive: erlotinib 0.019 | [1] -0.076 | [2] 0.105 | [3] -0.009 | [4] 0.034 | [5] -0.042 | [6] -0.014 | [7] -0.015 | [8] 0.011 | IRAK-1-4 Inhibitor I -0.011 | ibrutinib -0.039 | [9] -0.009 | ralimetinib 0 | [10] 0.024 | [11] 0.004 | [12] 0.017 | [13] -0.021 | [14] -0.001 | [15] -0.013 | [16] -0.01
